Consider 2 molecules from publication PMC7887190.

By UniProt entry, the sequences of proteins in these tests, tags left out.
UniProt P67809: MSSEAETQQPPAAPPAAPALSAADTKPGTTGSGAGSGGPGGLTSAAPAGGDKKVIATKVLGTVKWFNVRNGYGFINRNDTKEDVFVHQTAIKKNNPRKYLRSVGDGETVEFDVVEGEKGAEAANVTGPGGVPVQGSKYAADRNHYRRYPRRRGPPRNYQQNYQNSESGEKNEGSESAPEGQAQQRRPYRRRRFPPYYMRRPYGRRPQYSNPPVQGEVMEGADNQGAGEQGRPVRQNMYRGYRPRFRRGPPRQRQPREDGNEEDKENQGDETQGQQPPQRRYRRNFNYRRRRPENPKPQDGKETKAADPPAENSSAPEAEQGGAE

Substitutions are numbered along the chain they refer to. Names and notes keep the numbering of the source. No constants are given. Whether binding was seen depends on the method and setting. In cells and extracts the contact can be indirect. Some entries that bind do so weakly or less than the wild type.

The target in the assay is Y-box-binding protein-1 (YB1) (human (endogenous in MDA-MB-231)) (UniProt P67809). The assay is described as follows: co-IP; lysates of WAVE3-deficient MDA-MB-231 cells stably expressing the WAVE3 constructs; immunoprecipitated with anti-YB1 and blotted with anti-WAVE3, and immunoprecipitated with anti-WAVE3 and blotted with anti-YB1.

B1: wild-type WAVE3 (WASF3) (protein, UniProt Q9UPY6 1-502)
chain: MPLVKRNIEPRHLCRGALPEGITSELECVTNSTLAAIIRQLSSLSKHAEDIFGELFNEANNFYIRANSLQDRIDRLAVKVTQLDSTVEEVSLQDINMKKAFKSSTVQDQQVVSKNSIPNPVADIYNQSDKPPPLNILTPYRDDKKDGLKFYTDPSYFFDLWKEKMLQDTEDKRKEKRRQKEQKRIDGTTREVKKVRKARNRRQEWNMMAYDKELRPDNRLSQSVYHGASSEGSLSPDTRSHASDVTDYSYPATPNHSLHPQPVTPSYAAGDVPPHGPASQAAEHEYRPPSASARHMALNRPQQPPPPPPPQAPEGSQASAPMAPADYGMLPAQIIEYYNPSGPPPPPPPPVIPSAQTAFVSPLQMPMQPPFPASASSTHAAPPHPPSTGLLVTAPPPPGPPPPPPGPPGPGSSLSSSPMHGPPVAEAKRQEPAQPPISDARSDLLAAIRMGIQLKKVQEQREQEAKREPVGNDVATILSRRIAVEYSDSDDDSEFDENDWSD
On to B1, for which the binding result was “binds”.

B2: phospho-mutant WAVE3 (W3-Y4F) (protein, UniProt Q9UPY6 1-502)
chain: B1 chain with Y151F, Y248F, Y337F, Y486F
Consider B2, for which the binding result is on record as “no binding”.
